Laboratory results: paper PMC4263359, “Vesicular Stomatitis Virus Polymerase's Strong Affinity to Its Template Suggests Exotic Transcription Models” (PLoS Computational Biology, 2014)
No constants are given. Whether binding was seen depends on the method and setting. Binding seen in cells or lysates may run through a third protein. Some entries that bind do so weakly or less than the wild type.

Chains of the proteins cited; added tags and fusions are not shown.
UniProt P03521: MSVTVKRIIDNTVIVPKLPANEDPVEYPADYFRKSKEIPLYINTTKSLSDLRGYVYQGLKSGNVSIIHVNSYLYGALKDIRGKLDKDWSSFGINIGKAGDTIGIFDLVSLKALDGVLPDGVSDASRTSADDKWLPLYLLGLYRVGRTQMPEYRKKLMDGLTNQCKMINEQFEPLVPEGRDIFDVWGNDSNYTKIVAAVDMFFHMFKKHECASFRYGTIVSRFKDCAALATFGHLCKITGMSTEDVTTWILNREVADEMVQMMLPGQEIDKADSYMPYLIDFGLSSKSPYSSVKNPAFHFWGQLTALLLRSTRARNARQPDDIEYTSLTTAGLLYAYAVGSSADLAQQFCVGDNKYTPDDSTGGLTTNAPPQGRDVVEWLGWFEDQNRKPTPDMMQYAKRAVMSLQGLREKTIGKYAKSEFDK
UniProt P03520: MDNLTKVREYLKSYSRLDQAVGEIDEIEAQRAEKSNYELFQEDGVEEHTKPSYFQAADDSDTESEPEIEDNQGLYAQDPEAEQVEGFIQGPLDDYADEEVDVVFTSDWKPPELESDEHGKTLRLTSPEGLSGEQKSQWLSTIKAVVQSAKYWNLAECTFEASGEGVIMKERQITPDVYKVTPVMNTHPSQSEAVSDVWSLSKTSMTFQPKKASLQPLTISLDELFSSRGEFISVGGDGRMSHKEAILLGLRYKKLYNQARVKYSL

Target: VSV nucleoprotein N of the genome template (N-RNA) (vesicular stomatitis virus (endogenous in virions)) (UniProt P03521)
Test: co-sedimentation

VSV phosphoprotein P (from UniProt P03520 1-265)
binding: binds
